Primary screen of a compound library

The chains behind the UniProt entries cited, without tags or fusion partners. Residues count along the entry.
UniProt P9WFT3, whole entry: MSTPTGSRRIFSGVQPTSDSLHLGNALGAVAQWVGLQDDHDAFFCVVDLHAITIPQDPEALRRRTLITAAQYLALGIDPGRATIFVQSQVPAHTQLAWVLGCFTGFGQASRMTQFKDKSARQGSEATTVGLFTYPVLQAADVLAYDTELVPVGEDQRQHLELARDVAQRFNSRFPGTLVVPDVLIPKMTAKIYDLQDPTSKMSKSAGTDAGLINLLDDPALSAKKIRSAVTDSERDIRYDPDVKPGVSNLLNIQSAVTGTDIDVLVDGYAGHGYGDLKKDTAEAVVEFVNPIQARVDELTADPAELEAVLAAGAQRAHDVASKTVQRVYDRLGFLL
UniProt P9WPC5, whole entry: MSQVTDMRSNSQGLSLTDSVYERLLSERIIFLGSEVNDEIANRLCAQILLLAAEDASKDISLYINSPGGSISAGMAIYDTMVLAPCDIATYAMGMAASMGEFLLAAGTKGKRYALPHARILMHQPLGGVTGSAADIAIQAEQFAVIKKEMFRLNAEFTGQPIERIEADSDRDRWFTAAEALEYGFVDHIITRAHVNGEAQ
UniProt P9WPC3, whole entry partner: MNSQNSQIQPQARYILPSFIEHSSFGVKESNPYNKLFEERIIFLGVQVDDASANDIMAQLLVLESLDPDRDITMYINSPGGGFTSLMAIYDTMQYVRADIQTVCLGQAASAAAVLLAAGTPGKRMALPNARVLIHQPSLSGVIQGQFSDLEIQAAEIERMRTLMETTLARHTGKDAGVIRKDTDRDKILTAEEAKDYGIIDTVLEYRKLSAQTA
UniProt Q4DA54, 1-478: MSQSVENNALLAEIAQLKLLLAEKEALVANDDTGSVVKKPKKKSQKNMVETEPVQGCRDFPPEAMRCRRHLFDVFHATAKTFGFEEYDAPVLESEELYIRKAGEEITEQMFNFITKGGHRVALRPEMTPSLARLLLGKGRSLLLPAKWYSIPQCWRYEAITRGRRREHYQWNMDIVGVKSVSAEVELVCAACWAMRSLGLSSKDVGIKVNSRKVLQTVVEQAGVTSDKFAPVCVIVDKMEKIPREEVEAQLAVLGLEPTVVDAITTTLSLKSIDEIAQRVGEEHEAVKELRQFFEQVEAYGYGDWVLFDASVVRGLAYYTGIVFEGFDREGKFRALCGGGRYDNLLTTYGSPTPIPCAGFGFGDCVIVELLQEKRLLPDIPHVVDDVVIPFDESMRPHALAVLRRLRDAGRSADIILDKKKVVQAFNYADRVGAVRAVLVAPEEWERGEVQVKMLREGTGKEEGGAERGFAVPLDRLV

Measurements from “University of Dundee, Small-Polar-MMV Screening Library” (2021), ChEMBL document CHEMBL3988442.

MtTrpRS: 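Tryptophan-tRNA ligase, Mycobacterium tuberculosis (UniProt P9WFT3). Enzyme assay of tryptophanyl-tRNA synthetase; the read-out is not stated. Tested at 10 µM. Direction is not recorded; retested compounds ran higher, which suggests that high means inhibition. About 65,000 compounds were tested under these conditions; 0.098% (about 64) showed 50% or more at least once.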
ClpP1P2: 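ClpP1P2, Mycobacterium tuberculosis (UniProt P9WPC5 and UniProt P9WPC3). Protease assay of ClpP1P2, read by the AMC dye that it sets free. Tested at 50 µM. Higher reads as stronger inhibition, judged from the few compounds that gave an IC50. Most other retested compounds had strongly negative values. Size under these conditions: about 69,000 compounds, about 10 of them at 50% or above in at least one test.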
TcHisRS: 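Enzyme assay of histidyl-tRNA synthetase; the read-out is not stated. Target: Histidine-tRNA ligase, Trypanosoma cruzi CL Brener (UniProt Q4DA54). Compounds at 30 µM. Higher reads as stronger inhibition (inferred: compounds with an IC50 in retests scored well above the rest). Of about 69,000 compounds tested this way, about 31 (0.045%) reached 50% or more in at least one test.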

Values are the deposited “Percent Effect”, in %.
How 0% and 100% were set is not recorded. Most values in the screen are low, and negative values occur.
This is an unselected part of the compounds tested.
A dash means the value is not listed here; it may have been measured.

| # | structure | MtTrpRS | ClpP1P2 | TcHisRS |
|---|---|---|---|---|
| 1 | `COCc1cncc2c1CCN(Cc1ccccn1)C2` | 6.754% | 1.955% | 6.952% |
| 2 | `Fc1ccc(CNC2CCN(CCc3ccncc3)CC2)cc1F` | -5.651% | 3.896% | 2.174% |
| 3 | `Cc1oc(-c2ccco2)nc1CNC1CCCN(c2cccnn2)C1` (stereo not given) | -3.743% | -28.3% | 2.053% |
| 4 | `Cc1ccc(CNC2(Cc3cc(C(C)(C)O)on3)COC2)o1` | 0.2276% | 1.225% | 3.261% |
| 5 | `CC(C)c1nc(CN2CCN(C(=O)CN3CCOCC3)CC2)no1` | 1.077% | 9.026% | -7.018% |
| 6 | `COc1ccc(-c2cnc(NC(C)=O)[nH]2)cc1` | -4.18% | -11.85% | 3.415% |
| 7 | `CN1CC(C)(C)CN(C(=O)CCc2ccccc2)CC1=O` | - | 4.809% | 12.36% |
| 8 | `CCCc1nc(N2CCCN(c3ccncc3)CC2)c2cnn(C)c2n1` | 1.932% | 0.09797% | 13.6% |
| 9 | `CCCc1nnc([C@H]2CCN(Cc3ncc[nH]3)C2)o1` | 0.5271% | -15.24% | 12.87% |
| 10 | `Cc1cc(C)n(C2CCCN(C(=O)Cc3cccs3)C2)n1` (stereo not given) | 8.596% | -8.528% | 1.143% |
| 11 | `CC(NCCN1CCN(C(=O)C2CCCC2)CC1)c1nccs1` (stereo not given) | 0.5623% | 3.869% | 3.03% |
| 12 | `CCn1cc(-c2cc(-c3cc(CC(=O)O)cs3)nc(N)c2C#N)c(C)n1` | -2.853% | -406.3% | -1.754% |
| 13 | `O=C(CN1CCCS(=O)(=O)CC1)NCc1ccccc1F` | -3.685% | 2.426% | 12.07% |
| 14 | `CN1CCC(Cc2nc(-c3cnccn3)n(Cc3ccccc3)n2)CC1` | 1.343% | 4.925% | 2.041% |
| 15 | `CCOc1cc(=O)n2c(c1C(=O)OCc1ccc(OC)cc1)CCCC2` | 0.3215% | -2.048% | 6.931% |
| 16 | `Cc1ccc(NC2CCN(C(=O)CCc3ccncc3)CC2)nn1` | -5.13% | -65.62% | 5.233% |
| 17 | `COCCOCC(=O)NC1CCN(c2ccccn2)CC1` | -0.89% | 3.135% | 9.845% |
| 18 | `COc1ccc(C(=O)C2CCCN(Cc3ccncc3)C2)cc1OC` (stereo not given) | -4.944% | -8.345% | -1.212% |
| 19 | `O=C1[C@H]2CN(c3ncccn3)C[C@H]2CN1CC1CC1` | 5.913% | 1.992% | 4.294% |
| 20 | `CC1CC2(CCN(C(=O)c3csnn3)CC2)c2ccccc21` (stereo not given) | -4.056% | -24.01% | 3.279% |
| 21 | `Cc1cc(F)c2c(c1)CCCN2Cc1cc(=O)n(C)c(=O)n1C` | 2.839% | 19.61% | 16.16% |
| 22 | `O=C(COc1ccccc1)NCC1CC1` | -7.534% | -3.367% | 3.867% |
| 23 | `Cc1nn(C)c2c(NCCCn3cccn3)nc(C(C)C)nc12` | 0.7772% | 13.44% | 4.348% |
| 24 | `CCN1CC2(CC1=O)CN(Cc1ccccn1)CCN(C(C)=O)C2` (stereo not given) | 3.483% | -2.883% | 12.02% |
| 25 | `Cc1cnn(CCNc2ncnc3c2CCN(CC2CCOC2)CC3)c1` (stereo not given) | -0.4836% | -6.488% | 1.63% |
| 26 | `O=C(COC1CCCCC1)Nc1ccn(CCc2ccncc2)n1` | -1.051% | -12.05% | 6.316% |
| 27 | `CCn1cnnc1CNC(=O)c1cc(Cl)c(I)cc1OC` | -4.856% | 5.71% | 5.07% |
| 28 | `COCCNc1ncc(-c2onc(C)c2C)c(-c2ccco2)n1` | -4.167% | -0.8735% | 4.215% |
| 29 | `Cc1cc(NC(=O)NCC(O)c2ccc(F)cc2)n(C)n1` (stereo not given) | -5.408% | -25.79% | 7.647% |
| 30 | `O=C(NCCc1cccnc1)c1cn(CCN2CCNCC2)nn1` | -0.7843% | -12.15% | 3.867% |
| 31 | `O=C(CC1OCCc2ccsc21)NCC1CC1` (stereo not given) | 1.971% | -4.873% | 3.448% |
| 32 | `Cc1ccc(C(=O)Nc2cn[nH]c2)cc1` | -8.349% | -25.68% | 6.509% |
| 33 | `CCNC(=O)[C@@H]1C[C@@H](N)CN1C(=O)CCc1ccc(C)c(C)c1` | -2.991% | 7.966% | 5.587% |
| 34 | `Fc1cc(Cl)cnc1N1CCCC(c2nccn2Cc2ccncc2)C1` (stereo not given) | 1.586% | 6.169% | 1.288% |
| 35 | `CC(CO)(NC(=O)NCCc1ccc(Br)s1)C1CC1` (stereo not given) | 6.083% | -10.81% | 4.663% |
| 36 | `Cn1cc(Br)c(=O)c(NS(=O)(=O)c2ccccc2F)c1` | 2.523% | -11.2% | -3.077% |
| 37 | `Cc1c(C(=O)N2CC(=O)N(C)C2)nnn1-c1cccc2cccnc12` | -2.16% | -1.403% | 8.621% |
| 38 | `Cc1cnn(C2CCCN(C(=O)c3sccc3-n3cnnn3)C2)c1` (stereo not given) | -1.559% | 5.552% | 2.29% |
| 39 | `O=C(c1cc(Cl)cc2cccnc12)N1CCN(CCO)CC1` | -3.476% | -30.34% | 6.158% |
| 40 | `Cc1n[nH]c(C)c1CCC(=O)NCC1COc2ccccc2C1` (stereo not given) | 3.179% | 2.672% | 7.831% |
| 41 | `Cc1cc(S(=O)(=O)NCC(C)(O)CN(C)C)c(F)cc1F` (stereo not given) | -2.016% | -9.141% | 6.931% |
| 42 | `O[C@@]1(CNCCOc2ccccc2)CCCN2CCCC[C@@H]21` | 5.644% | -31.93% | 0% |
| 43 | `COC(C)(C)C(=O)N[C@H]1CN(c2nccnc2N(C)C)C[C@@H]1C(C)C` | -1.554% | -1.031% | 0.4926% |
| 44 | `CSc1ncc(C(=O)N(C)C(C)Cc2ccccn2)cn1` (stereo not given) | -7.381% | -20.03% | 3.876% |
| 45 | `OC(c1ccccn1)C1CCN(Cc2cc3n(n2)CCNC3)CC1` (stereo not given) | 2.418% | 3.194% | -14.46% |
| 46 | `CCn1cc(CN2CCC(CN3CCCCC3)CC2)cc1C#N` | -2.397% | -5.16% | 15.19% |
| 47 | `O=C(c1cc[nH]n1)N1CCN(C(c2ccccc2)C(F)(F)F)CC1` (stereo not given) | -6.989% | -12.95% | 6.897% |
| 48 | `Cc1nccn1C1CCCN(C(=O)c2cccc(OCC(N)=O)c2)C1` (stereo not given) | 12.62% | 14.83% | 2.286% |
| 49 | `CC(C)c1nc2c(n1C)CCN(CCc1ccccn1)C2` | -0.516% | -3.638% | 5.195% |
| 50 | `O[C@H]1CN(Cc2ccc3c(c2)OCCO3)CC[C@@]12CCCO2` | -2.493% | 0.8091% | 3.731% |
| 51 | `Cc1cnn(CC(C)NCc2nc(-c3cccs3)no2)c1` (stereo not given) | -5.245% | 5.981% | 4.046% |
| 52 | `c1cnn(CC2CCCCN2Cc2nc(-c3ccoc3)no2)c1` (stereo not given) | -5.9% | -15.68% | 4.52% |
| 53 | `CC(C)CNC(=O)CNC(=O)NCC(O)c1ccc2ccccc2c1` (stereo not given) | -4.871% | -10.84% | 2.105% |
| 54 | `CC(C)c1cc(-c2cnn(C)c2C2CC2)c(C#N)c(N)n1` | -0.05974% | 9.098% | 3.017% |
| 55 | `CN(C)S(=O)(=O)N1CC[C@]2(C[C@@H](Oc3cccnc3)CO2)C1` | -0.1744% | -4.216% | 10.74% |
| 56 | `OCCOc1ccc(NCc2cccc3[nH]ccc23)cn1` | -0.8489% | -7.434% | 6.494% |
| 57 | `CCOC(=O)CSc1nnc([C@@H](N)CC(C)C)o1` | -4.289% | -20.91% | 5.208% |
| 58 | `O=C(Cn1nc(-c2ccc(F)cc2)oc1=O)NCC1CCCO1` (stereo not given) | -3.436% | 0.7945% | 7.738% |
| 59 | `CSc1ccc2cc(CN(C)CCc3cn[nH]c3)c(=O)[nH]c2c1` | 4.925% | -11.92% | 8.108% |
| 60 | `CNC(=O)c1cccnc1NCCOc1ccc(CC#N)cc1` | -0.2018% | -3.73% | 4.348% |

The first 4 entries again:

* COCc1cncc2c1CCN(Cc1ccccn1)C2 : MtTrpRS: 6.754%; ClpP1P2: 1.955%; TcHisRS: 6.952%
* Fc1ccc(CNC2CCN(CCc3ccncc3)CC2)cc1F : MtTrpRS: -5.651%; ClpP1P2: 3.896%; TcHisRS: 2.174%
* Cc1oc(-c2ccco2)nc1CNC1CCCN(c2cccnn2)C1 (stereo not given) : MtTrpRS: -3.743%; ClpP1P2: -28.3%; TcHisRS: 2.053%
* Cc1ccc(CNC2(Cc3cc(C(C)(C)O)on3)COC2)o1 : MtTrpRS: 0.2276%; ClpP1P2: 1.225%; TcHisRS: 3.261%